Measured values from paper PMC5562816, “Rap1 and Cdc13 have complementary roles in preventing exonucleolytic degradation of telomere 5′ ends”.
The exact form of at least one protein or probe is not confirmed. No signal at the amounts used counts as a negative. At least one verdict rests on a figure or table, not on a statement of the authors.

System: Cdc13 (Naumovozyma castellii)
Assay: EMSA
Conditions: 5'-phosphate on C-strand (DEPA substrate), EMSA: 10 fmol probe, 1.5 ug competitor mix (E. coli DNA, salmon sperm DNA, yeast tRNA), 1x lambda-exonuclease buffer (67 mM glycine-KOH pH 9.4), recombinant protein, label: 32P 3'-deoxy-ATP added to 3' end of C-strand

Sequence | binding result (high affinity) | binding result
GTCACACGTCACACTCTGGGTGTCTGGGTGTCTGGGTGTC / GACACCCAGAGTGTGACGTGTGAC [D10S16] | binds | –
GTCACACGTCACACTCTGGGTGTCTGGGTGTCTGGGTGTC / CCAGACACCCAGAGTGTGACGTGTGAC [D13S13] | – | binds
GTCACACGTCACACTCTGGGTGTCTGGGTGACTGAGTGTC / CCAGACACCCAGAGTGTGACGTGTGAC [D13S13m] | – | no binding
GTCACACGTCACACTCTGGGTGTCTGGGTGTCTGGGTGTC / ACCCAGAGTGTGACGTGTGAC [D7S19] | – | binds
